# Measurements reported in the supplement of paper PMC12889115.
# This is one part of the list. Values are raw readings; no control value is given beside them.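 Primary screen: polymyxin B was added at a level permeabilizing Salmonella outer membranes while sparing inner membranes. DMSO wells, both with and without polymyxin B, established maximum growth. Plate-to-plate variation meant each plate was ranked on its own, and the lowest-OD600 compounds were selected as hits.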
# System: Salmonella enterica serovar Typhimurium SL1344
# Test: bacterial growth OD600 after 18 h with compound and polymyxin B; higher = more bacterial growth (less inhibition)
# Settings: 50 µM, Mueller-Hinton broth
SMILES,bacterial growth OD600 (polymyxin B 1 µg/mL),bacterial growth OD600 (polymyxin B 0.75 µg/mL)
CCOC(=O)C1(Cc2cccc(OC)c2)CCCN(C2CSCCSC2)C1 (stereo not drawn),0.822,–
CCN1CCN(C(=O)c2ccc(N3CCC(NCc4cccc(OC(F)(F)F)c4)CC3)cc2)CC1,–,0.992
CCCC1(C2CCN(C/C=C/c3ccco3)CC2)NC(=O)N(CCC2CCCN2C)C1=O (stereo not drawn),–,0.763
CCN1CCN(C2(C(=O)NCCCn3nc(C)cc3C)Cc3ccccc3C2)CC1,–,0.826
CCOc1ccc(CN2CCN(Cc3cnc(C)s3)CC2CCO)cc1 (stereo not drawn),0.905,–
CCn1ccnc1CNC(=O)CC(c1ccccc1)c1ccc(Cl)cc1 (stereo not drawn),0.545,–
CC(=O)c1cc(C(=O)N2CCCC(CCc3ccccc3C)C2)[nH]n1 (stereo not drawn),0.024,–
CC(C)OCCCNc1nc(CN2CCCCC2c2nccs2)nc2ccc(Cl)cc12 (stereo not drawn),–,0.676
